According to patent US20190040142A1:
These are yes or no findings as the source states them, for the method shown. Some binding calls cover weakened binding; strength is not graded here.

Sequences of proteins named here, by UniProt entry; tags and fusion partners are left off. Residues count along the entry.
UniProt Q86Z14, residues 53-997: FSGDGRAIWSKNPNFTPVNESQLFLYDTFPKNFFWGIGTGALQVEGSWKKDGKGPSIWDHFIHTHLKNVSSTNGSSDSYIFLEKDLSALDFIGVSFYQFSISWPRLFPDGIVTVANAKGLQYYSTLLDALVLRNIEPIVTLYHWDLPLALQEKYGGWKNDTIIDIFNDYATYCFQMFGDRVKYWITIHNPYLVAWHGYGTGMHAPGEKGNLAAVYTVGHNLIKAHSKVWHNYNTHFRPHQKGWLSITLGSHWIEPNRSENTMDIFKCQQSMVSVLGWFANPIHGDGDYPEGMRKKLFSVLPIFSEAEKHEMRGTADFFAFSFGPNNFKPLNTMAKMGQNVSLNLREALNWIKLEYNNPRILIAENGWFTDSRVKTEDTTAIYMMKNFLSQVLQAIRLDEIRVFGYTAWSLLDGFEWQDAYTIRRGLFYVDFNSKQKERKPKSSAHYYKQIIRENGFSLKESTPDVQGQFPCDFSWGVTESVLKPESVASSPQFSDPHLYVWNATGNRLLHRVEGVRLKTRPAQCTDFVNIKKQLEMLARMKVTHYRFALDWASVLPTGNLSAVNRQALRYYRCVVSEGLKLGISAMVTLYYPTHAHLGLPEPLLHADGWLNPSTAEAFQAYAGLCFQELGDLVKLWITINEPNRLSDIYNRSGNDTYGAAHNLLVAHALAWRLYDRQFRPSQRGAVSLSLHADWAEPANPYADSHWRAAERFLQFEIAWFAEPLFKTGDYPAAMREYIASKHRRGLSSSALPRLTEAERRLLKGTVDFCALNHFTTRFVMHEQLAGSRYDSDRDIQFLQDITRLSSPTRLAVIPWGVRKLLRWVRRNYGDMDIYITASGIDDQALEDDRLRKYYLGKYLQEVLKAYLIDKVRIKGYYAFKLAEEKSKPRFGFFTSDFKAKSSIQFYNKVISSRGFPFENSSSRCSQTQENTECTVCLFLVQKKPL

What was measured:
[1] = molecular target: recombinant human KLB (soluble protein) (human) (UniProt Q86Z14); assay: biolayer interferometry (Octet), anti-human Fc sensor -> human Ab1 -> hKLB protein -> mouse Ab2
[2] = molecular target: recombinant human KLB (soluble protein) (human) (UniProt Q86Z14); assay: biolayer interferometry, Octet Red384, sandwich epitope binning; test antibody
[3] = molecular target: recombinant human KLB (soluble protein) (human) (UniProt Q86Z14); assay: biolayer interferometry, Octet Red384, sandwich epitope binning; reference antibody

B1: anti-KLB monoclonal antibody 2C12 (antibody, human IgG1, V domains shown)
VH: EVQLQQSGPGLVKPSQSLSLTCSVTGYSITSGYYWTWIRQFPGNKLEWMGYIKYDGGNYYNPSLRNRISITRDTSKNHFFLKFYSVTAEDTATYFCARGDYYASPYGAMDSWGQGTSVTVSS
VL: DIVMTQSPSSLSASLGDTITITCHASQDIDVWLSWYQQKPGNVPQLLISKSSILHTGVPSRFSGGGSGTGFTLTISSLQPEDIATYYCQQGLSYPFTFGSGTKLKIK
binding [1]: binds | binding [2]: binds

B2: anti-KLB monoclonal antibody 28B7 (antibody, IgG1, V domains shown)
VH: EVQLQQSGPELVQPGTSVKISCEASGYTFTDYYINWVKQSRGKSLEWIGDINPNNGDTTYNQKFKAKATLTVDRSSNTAYMELRSLTSEDSVVYYCARRFYSSPFDSWGQGTTLTVSS
VL: DIVMTQSPSSLAVSVGEKVTLSCKSGQSLLYSRNQKNYLAWYQQKPGQSPKLLISWASTRESGVPDRFTGSGSGTDFTLTISSVKTEDLAVYHCQQYYSYPYTFGGGTRLEIK
binding [1]: binds | binding [3]: binds

B3: anti-KLB monoclonal antibody 23B3 (antibody, V domains shown)
VH: EVQLQESGPGLVKPSQSLSLTCSVTGYSITSGYYWNWIRQFPGNKLEWMGYIRYDGNSNYNPFLKNRVSITRDTSKNQFFLKLNSVTTEDTATYYCTRKGAYYSSFDALDYWGQGTSVTVSS
VL: DIVMTQSPSSMYASLGERVTISCKASQDIRSYLSWFQQKPGKSPKTLIYRANRLVDGVPSRFSGSGSGQDYSLTITSLEFGDVGLYYCLQYDEFPLTFGAGTKLKIE
binding [1]: binds
